Measurements reported in publication PMC5550871.
No constants are given. Whether binding was seen depends on the method and setting. Binding seen in cells or lysates may run through a third protein. Some results given as binding are weak or reduced against the parent protein; the word gives no strength. For some of these results: Tags and fused reporters may be left off the sequences shown. Values belong to the substance of their own block, whether it stands above or below them.

Protein sequences, listed by entry. Tags and fused reporters are not part of them.
UniProt P08151: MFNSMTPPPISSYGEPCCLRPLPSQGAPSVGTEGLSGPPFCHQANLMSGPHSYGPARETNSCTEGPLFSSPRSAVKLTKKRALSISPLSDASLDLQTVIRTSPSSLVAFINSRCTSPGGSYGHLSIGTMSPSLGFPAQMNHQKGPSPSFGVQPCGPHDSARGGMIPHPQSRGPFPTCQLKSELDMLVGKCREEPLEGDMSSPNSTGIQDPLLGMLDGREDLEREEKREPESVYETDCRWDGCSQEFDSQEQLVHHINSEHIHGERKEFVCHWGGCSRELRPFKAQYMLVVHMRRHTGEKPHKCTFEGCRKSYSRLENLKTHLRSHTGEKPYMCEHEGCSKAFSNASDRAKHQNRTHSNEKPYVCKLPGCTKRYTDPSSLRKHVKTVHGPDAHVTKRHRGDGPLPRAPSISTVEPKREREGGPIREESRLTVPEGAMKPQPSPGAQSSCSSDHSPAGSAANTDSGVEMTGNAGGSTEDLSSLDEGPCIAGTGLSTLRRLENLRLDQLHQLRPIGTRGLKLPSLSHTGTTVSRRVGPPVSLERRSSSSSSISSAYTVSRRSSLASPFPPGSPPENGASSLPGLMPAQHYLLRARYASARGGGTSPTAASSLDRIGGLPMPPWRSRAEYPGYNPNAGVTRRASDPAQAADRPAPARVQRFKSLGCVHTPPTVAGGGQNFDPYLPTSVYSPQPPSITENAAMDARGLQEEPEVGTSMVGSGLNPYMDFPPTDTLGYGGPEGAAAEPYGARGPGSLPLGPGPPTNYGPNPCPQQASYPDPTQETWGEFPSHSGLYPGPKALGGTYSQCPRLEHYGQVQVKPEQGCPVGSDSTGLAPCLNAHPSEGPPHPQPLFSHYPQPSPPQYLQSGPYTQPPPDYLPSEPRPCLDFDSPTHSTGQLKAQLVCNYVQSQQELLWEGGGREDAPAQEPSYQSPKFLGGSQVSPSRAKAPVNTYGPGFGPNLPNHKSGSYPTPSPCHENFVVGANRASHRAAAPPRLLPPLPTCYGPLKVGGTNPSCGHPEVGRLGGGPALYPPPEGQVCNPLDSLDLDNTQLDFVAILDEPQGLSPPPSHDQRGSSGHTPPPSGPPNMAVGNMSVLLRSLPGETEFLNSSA
UniProt P47806: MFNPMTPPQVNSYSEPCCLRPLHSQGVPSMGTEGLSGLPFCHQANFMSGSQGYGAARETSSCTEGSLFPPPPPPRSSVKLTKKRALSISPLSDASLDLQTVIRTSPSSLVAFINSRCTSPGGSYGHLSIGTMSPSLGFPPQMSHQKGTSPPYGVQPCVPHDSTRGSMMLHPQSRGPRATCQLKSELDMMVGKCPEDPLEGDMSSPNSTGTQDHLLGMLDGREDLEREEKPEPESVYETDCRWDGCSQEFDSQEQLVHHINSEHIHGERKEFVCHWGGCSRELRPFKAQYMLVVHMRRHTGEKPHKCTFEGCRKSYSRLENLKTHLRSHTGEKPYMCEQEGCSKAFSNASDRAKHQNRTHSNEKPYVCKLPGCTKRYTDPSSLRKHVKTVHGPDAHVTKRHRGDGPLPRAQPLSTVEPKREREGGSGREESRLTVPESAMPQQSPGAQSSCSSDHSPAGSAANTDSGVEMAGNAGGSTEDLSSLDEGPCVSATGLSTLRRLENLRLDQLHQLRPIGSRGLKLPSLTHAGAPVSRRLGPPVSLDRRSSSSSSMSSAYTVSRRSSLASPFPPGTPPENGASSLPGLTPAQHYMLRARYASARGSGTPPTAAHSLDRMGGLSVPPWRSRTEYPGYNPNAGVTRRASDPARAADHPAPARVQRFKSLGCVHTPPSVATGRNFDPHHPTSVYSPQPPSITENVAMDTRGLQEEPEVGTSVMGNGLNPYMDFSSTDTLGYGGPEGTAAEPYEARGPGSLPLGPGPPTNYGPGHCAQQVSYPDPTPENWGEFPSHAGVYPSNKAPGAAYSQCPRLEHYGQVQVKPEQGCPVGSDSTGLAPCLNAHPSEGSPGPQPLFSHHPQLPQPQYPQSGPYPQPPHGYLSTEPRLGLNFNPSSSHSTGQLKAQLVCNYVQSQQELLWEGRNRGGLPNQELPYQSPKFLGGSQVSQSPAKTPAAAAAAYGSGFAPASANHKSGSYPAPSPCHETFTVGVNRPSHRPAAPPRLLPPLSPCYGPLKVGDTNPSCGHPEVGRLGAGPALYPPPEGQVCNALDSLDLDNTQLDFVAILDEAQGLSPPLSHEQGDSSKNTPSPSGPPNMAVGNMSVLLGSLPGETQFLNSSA
UniProt P10070: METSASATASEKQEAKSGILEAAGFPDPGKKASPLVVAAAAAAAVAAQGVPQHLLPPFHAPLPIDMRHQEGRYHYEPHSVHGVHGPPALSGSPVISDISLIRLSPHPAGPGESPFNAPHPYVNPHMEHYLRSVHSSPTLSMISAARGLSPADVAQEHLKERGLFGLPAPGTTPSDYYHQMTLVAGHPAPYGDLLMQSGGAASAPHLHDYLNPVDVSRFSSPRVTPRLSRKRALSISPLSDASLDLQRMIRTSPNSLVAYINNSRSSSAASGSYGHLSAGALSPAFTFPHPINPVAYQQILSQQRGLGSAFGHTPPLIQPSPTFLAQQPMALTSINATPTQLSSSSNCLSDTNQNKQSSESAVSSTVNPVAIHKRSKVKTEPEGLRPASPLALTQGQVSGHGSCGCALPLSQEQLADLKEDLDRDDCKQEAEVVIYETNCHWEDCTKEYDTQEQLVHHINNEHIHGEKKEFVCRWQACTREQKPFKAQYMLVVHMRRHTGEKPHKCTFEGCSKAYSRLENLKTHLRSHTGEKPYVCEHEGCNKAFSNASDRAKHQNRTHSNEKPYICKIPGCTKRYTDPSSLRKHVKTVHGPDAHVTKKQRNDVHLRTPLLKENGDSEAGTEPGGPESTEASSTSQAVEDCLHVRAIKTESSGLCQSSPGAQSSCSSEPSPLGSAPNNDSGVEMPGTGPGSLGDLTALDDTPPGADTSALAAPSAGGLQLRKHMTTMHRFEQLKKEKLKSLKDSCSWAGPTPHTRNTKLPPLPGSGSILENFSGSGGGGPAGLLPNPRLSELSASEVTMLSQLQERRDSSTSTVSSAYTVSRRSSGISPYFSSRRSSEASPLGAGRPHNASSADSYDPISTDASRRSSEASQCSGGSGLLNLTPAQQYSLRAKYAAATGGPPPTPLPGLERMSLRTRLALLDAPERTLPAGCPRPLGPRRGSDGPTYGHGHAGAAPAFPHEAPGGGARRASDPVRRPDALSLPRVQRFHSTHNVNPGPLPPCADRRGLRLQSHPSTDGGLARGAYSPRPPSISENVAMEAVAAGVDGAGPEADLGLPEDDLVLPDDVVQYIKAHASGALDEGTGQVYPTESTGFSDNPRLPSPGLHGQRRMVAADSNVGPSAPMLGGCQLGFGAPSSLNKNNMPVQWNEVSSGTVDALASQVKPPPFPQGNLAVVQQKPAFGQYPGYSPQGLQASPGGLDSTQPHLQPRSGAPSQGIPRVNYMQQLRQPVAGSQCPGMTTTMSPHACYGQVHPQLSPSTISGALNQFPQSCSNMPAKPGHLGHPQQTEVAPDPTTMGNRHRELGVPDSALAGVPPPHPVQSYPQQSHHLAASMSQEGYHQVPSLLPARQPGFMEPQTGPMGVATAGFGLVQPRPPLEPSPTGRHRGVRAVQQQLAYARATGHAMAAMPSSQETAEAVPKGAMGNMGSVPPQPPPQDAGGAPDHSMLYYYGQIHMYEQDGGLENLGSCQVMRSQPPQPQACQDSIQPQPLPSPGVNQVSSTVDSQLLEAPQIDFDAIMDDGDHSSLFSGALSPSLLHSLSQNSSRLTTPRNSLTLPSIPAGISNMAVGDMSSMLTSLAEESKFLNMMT

Experiments:
[1] = target: HA-tagged Gli1 (pCS2-HA3-Gli1) (UniProt P08151); experiment: co-IP; reciprocal: transfected HEK293T lysate, pre-cleared with Protein G-Agarose, anti-Gli1 (C-1) or normal mouse IgG overnight at 4 °C; Maml1 detected with anti-Flag
[2] = target: endogenous Maml1 (mouse (endogenous in Ptch1−/− MEFs and NIH3T3)) (UniProt Q6T264); experiment: co-IP; endogenous proteins; Ptch1−/− MEF lysate, anti-Maml1 (D3E9) or normal rabbit IgG overnight at 4 °C, Protein A-Agarose; blot for Gli1
[3] = target: endogenous Maml1 (mouse (endogenous in Ptch1−/− MEFs and NIH3T3)) (UniProt Q6T264); experiment: proximity ligation; in situ PLA (Duolink) in NIH3T3 cells with anti-Gli1 (H300) and anti-Maml1 (N-20); signal only when the two antigens are less than 40 nm apart; controls with only one primary antibody
[4] = target: Flag-tagged Maml1 full-length (1–1016) (UniProt Q92585); experiment: co-IP; transfected HEK293T cells; lysate incubated with Flag M2 agarose beads for 2 h at 4 °C; control with the antibody saturated with Flag peptide; blots with anti-HA or anti-Myc
[5] = target: Flag-tagged Maml1 (1–302) (UniProt Q92585); experiment: as above
[6] = target: T1, Flag-tagged Maml1 (303–1016) (UniProt Q92585); experiment: as above
T1 sequence: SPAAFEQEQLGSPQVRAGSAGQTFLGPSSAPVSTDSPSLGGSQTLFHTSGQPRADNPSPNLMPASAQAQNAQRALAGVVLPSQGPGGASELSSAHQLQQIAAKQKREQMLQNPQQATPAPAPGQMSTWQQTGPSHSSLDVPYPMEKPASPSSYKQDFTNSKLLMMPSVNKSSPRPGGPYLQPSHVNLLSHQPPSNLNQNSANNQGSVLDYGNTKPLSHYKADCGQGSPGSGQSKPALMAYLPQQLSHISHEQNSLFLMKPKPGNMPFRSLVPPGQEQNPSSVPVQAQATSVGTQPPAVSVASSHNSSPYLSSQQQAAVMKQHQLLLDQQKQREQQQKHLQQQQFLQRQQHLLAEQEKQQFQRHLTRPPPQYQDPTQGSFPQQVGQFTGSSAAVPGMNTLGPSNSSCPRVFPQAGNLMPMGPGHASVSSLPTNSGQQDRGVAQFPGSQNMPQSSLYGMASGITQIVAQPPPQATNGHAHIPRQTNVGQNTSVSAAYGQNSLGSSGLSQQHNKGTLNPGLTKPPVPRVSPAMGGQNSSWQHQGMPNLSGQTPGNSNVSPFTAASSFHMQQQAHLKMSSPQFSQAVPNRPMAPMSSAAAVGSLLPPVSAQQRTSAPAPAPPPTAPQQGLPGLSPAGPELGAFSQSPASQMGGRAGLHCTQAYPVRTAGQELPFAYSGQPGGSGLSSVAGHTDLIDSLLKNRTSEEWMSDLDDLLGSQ

binding [1]: binds
Substance: Flag-tagged Maml1 full-length (1–1016) (from UniProt Q92585 1-1016)

binding [2]: binds | binding [3]: binds
Substance: endogenous Gli1 (from UniProt P47806 1-1111)

binding [4]: binds
Substance: Myc-tagged Gli2 full length (pCS2-MT Gli2FL-Myc) (from UniProt P10070 1-1586)

binding [4]: binds | binding [5]: binds | binding [6]: binds
Substance: HA-tagged Gli1 (pCS2-HA3-Gli1) (from UniProt P08151 1-1106)
